In article PMC5493781:
No constants are given. Whether binding was seen depends on the method and setting. In cells and extracts the contact can be indirect. Binding can be weak; no strength is given.

Target: GFP-CEP19 C-terminal half (residues 85-167)
Test: co-IP; GFP fusions of CEP19 precipitated from transfected HEK 293 lysate with goat GFP antibody on Protein G Sepharose, 4 °C; 50 mM HEPES pH 8, 100 mM KCl, 2 mM EDTA, 10% glycerol, 0.1% NP-40, 1 mM DTT; blots for endogenous proteins

- binding: binds
B1: FGFR1OP (FOP) (protein, UniProt O95684 1-399)
chain: MAATAAAVVAEEDTELRDLLVQTLENSGVLNRIKAELRAAVFLALEEQEKVENKTPLVNESLKKFLNTKDGRLVASLVAEFLQFFNLDFTLAVFQPETSTLQGLEGRENLARDLGIIEAEGTVGGPLLLEVIRRCQQKEKGPTTGEGALDLSDVHSPPKSPEGKTSAQTTPSKIPRYKGQGKKKTSGQKAGDKKANDEANQSDTSVSLSEPKSKSSLHLLSHETKIGSFLSNRTLDGKDKAGLCPDEDDMEGDSFFDDPIPKPEKTYGLRKEPRKQAGSLASLSDAPPLKSGLSSLAGAPSLKDSESKRGNTVLKDLKLISDKIGSLGLGTGEDDDYVDDFNSTSHRSEKSEISIGEEIEEDLSVEIDDINTSDKLDDLTQDLTVSQLSDVADYLEDVA
